About 210 (0.4%) of roughly 52,000 sequences were called active.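 How the source made its calls: active means gene whose silencing raises cell survival under the drug, median off-target-corrected z-score across its silencing RNAs 2 or more; inactive means the rest.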 This is one part of the list.

The nature of the assay: Resistance to Poly (ADP-Ribose) Polymerase inhibitor: Gene Identification via Genome-wide siRNA Screen. Particulars: mouse BRCA2 R2336H ES cells, olaparib, CellTiter-Glo viability; stronger effect = higher value. The gist of the method:
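Mouse BRCA2 R2336H ES cells were reverse-transfected with siRNA (20 nM final), treated at 48 h with 500 nM olaparib, and read by CellTiter-Glo after 72 h. Scores: MAD-based z per siRNA, median per gene, seed off-target correction.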
Background: In ATP-based viability assays light output follows the ATP content of the culture.
For CCCGUUUGAGCUACUUCUUTT against Rgs2, the z-score was inactive: 0.696.

Consider GCUAACCUUUGGAAUUGGATT against Rnf139, for which the z-score is inactive: 1.26.

For GGUAUUCAUAAGAACACAGTT against S3-12, the z-score was inactive: 1.22.

As to AAAGCGCAUUCACAAAAAUTT against Olfr1453, the z-score is inactive: 1.34.

With GCAGAAAAACCUGUGAAAATT against Pcnp, the z-score is inactive: -1.06.

GGAGAGGAAGACUUUGAAUTT against Pin1: the z-score is inactive: 0.715.

As to CCCUCUCUUUGGAUACACATT against Odz4, the z-score is inactive: -1.5.

As for GGAUGCUCAAGGAAAACAGTT against Lipl2, the z-score is inactive: 0.106.

Turning to AGAAAACUCGAGGUGACCATT against Znhit1, the z-score is inactive: 1.09.

Turning to CCAGAUGACAAAUUUACCCTT against Tdpoz4, the z-score was inactive: 0.642.

On to CCCAUCAGAUUGUUAUUAATT against Olfr652, for which the z-score was inactive: 0.754.

For the sequence GCUGUUCCAUGUUAAAAAATT against Esm1, the z-score is inactive: 0.675.

Take GGGACUGGAAUUGACAUCCTT against Trpm4: the z-score is inactive: 0.848.

Take GCUUGGCCAUCAUUGGAGCTT against H2-Q6: the z-score was inactive: -0.703.

As to “GGUCAGCAAAAGAGAUUCUTT against 9830124H08Rik”, the z-score was inactive: 0.391.

For GCUGGUGAUUCCUAAACUGTT against Oprd1, the z-score was inactive: 0.413.

As to GGUGCUGAUUACAGUAGAATT against Pcdhga10, the z-score was inactive: 2.9.

Consider GGAGGGACAUGAUUUUGAATT against Pfkfb2, for which the z-score was inactive: -0.00662.

Take “GGUUCUUGUUUCAUUUUGCTT against 9330140G23”: the z-score was inactive: 0.474.

GGAGACUUUUGAAAUAGAATT against C8a: the z-score was inactive: -0.768.

As for “CGAGGAAAAUUCCCGUCCCTT against 1810003N24Rik”, the z-score was inactive: -0.593.

In the case of GCAAUGGCUGAAAUCCUCCTT against Dnmt3l, the z-score was inactive: -0.48.

On to “CCAUUGUGUGGUACUUAAATT against 4833420N02Rik”, for which the z-score was inactive: -1.12.

As for “GCACGAAUCCUUGGAGAAATT against 4933430F08Rik”, the z-score was inactive: -1.11.

On to GGCCAAGGUCAAUAACUCCTT against Recc1, for which the z-score is inactive: 0.752.

On to “GGUUGAAUAUUGAAUGGAATT against 9130422G05Rik”, for which the z-score is inactive: 0.44.

Regarding GGAUUACCCAUCCUACACATT against Eya4, the z-score was inactive: -0.867.

As for “GGCACUACUAAGAACCUUATT against A630048M13Rik”, the z-score was inactive: -0.111.

For the sequence “GGCUCCAGUACGUCAUCCUTT against 2610528O22Rik”, the z-score is inactive: -0.672.

As for GGUUAACUUGAGCUCUGUGTT against Znrf4, the z-score is inactive: -0.861.

Consider GGUAAAACUGUAGUGAUCGTT against Slfn4, for which the z-score is inactive: -1.14.

In the case of UUGUGAUUCCAAUUUCCCUTT against Olfr1330, the z-score is inactive: -1.21.

With “GGAACAUGACAUUUUUGUCTT against 1500032L24Rik”, the z-score is inactive: -0.579.

Turning to CCAUAAAUCACUCAGUUUGTT against Tenr, the z-score was inactive: 1.11.

As for GGCUGAGAAGCUAAAGGAGTT against Pabpn1, the z-score was inactive: -0.504.

Turning to GCGAAUGGAUUGCUACAAUTT against Klhl7, the z-score was inactive: 0.00963.

Consider GGGAGUCAUUCCCAAUGAUTT against Mras, for which the z-score is inactive: -1.06.

With UCCGUUGGAGUAUCGAUGUTT against MGC102419, the z-score was inactive: -0.312.

With GCUACGUCACUUCUGUUUUTT against Acmsd, the z-score was inactive: -0.161.

“GGCCAGAUGCAGUCUGUGUTT against 2410170E21Rik”: the z-score was inactive: -1.65.

In the case of GGCUCUAGGACCAAAAUUUTT against Hsd3b2, the z-score is inactive: 0.8.

Turning to CCCUCGUUGCUUUCUGCAUTT against Slc16a8, the z-score is inactive: -0.387.

GGAUUUUUGCCUCUAACUUTT against Bysl: the z-score was inactive: -2.72.

Regarding GGACUUUGAGGAGAAGGAUTT against Rabep2, the z-score was inactive: -1.27.

As for GCUGGAAGAAAACUUCUAUTT against Phf15, the z-score is inactive: 0.188.

As to “GCUGGAUCUAGGUACCAAGTT against 2410170E21Rik”, the z-score was inactive: -1.19.

Take GGAAUCAGCAAACUCAACCTT against Rnase11: the z-score is inactive: -0.619.

As for GCAUGGGAUUGGUUCAUGATT against Nmi, the z-score is inactive: -0.669.

On to GCCCAAAAAGGAGGGUAGUTT against Aebp1, for which the z-score is inactive: 1.64.

As for GGCUCUUUGAAGUACUACATT against Ercc1, the z-score is inactive: -1.39.

On to GGAUUCAAGGAAGGCCUUCTT against Myl7, for which the z-score is inactive: -0.0901.

Take CCAGUGGUCUGAAUCAGAUTT against Fbxw11: the z-score is inactive: 0.544.

Consider GCCCGUCCUGUUUGGAUUATT against Wdr53, for which the z-score was inactive: 0.195.

Regarding GGUGAAGUUUUUCUACUUGTT against Tram2, the z-score was inactive: -0.679.

GGACAAGUUUAACAGGAAUTT against Apoa4: the z-score was inactive: 2.13.

On to “GGAGCACUUUGUAUGGAACTT against 3010021M21Rik”, for which the z-score is inactive: 1.

GGAAUGGUUGCCUCUGUUATT against Olfr1182: the z-score was inactive: -0.241.

CCGAAAACAAUAACUCCUCTT against Six1: the z-score is inactive: 0.0211.

Take “GCCUGGUUUAACAAUCCUCTT against 9630048M01Rik”: the z-score was inactive: 1.04.

For GGACAAGCUAGAAUUUGCCTT against BC003266, the z-score is inactive: -0.372.

For the sequence “CCCACCAGUUGUCAUGAAUTT against 2900075G08Rik”, the z-score was inactive: 0.843.

On to GGUCACCCAUGUACUUCUUTT against Olfr1189, for which the z-score is inactive: 0.28.

Consider GGAACACUGGAAAAAUGUUTT against Ldh3, for which the z-score was inactive: 0.332.

For GGCAGAGCUCAAAAAGAAATT against Ankrd1, the z-score was inactive: -0.111.

As for “CGUAGAUCUUUCAUUUGUCTT against 2610025M23Rik”, the z-score is inactive: 1.42.

As for GGAACUAGAAGAAAUGUUATT against Mrps9, the z-score is inactive: -0.451.
